Results are given in words; binding and its absence hold for the method and conditions named. Binding seen in cells or lysates may run through a third protein. Some binding calls cover weakened binding; strength is not graded here.

Sequences of proteins named here, by UniProt entry; tags and fusion partners are left off. Residues count along the entry.
UniProt Q96EB6: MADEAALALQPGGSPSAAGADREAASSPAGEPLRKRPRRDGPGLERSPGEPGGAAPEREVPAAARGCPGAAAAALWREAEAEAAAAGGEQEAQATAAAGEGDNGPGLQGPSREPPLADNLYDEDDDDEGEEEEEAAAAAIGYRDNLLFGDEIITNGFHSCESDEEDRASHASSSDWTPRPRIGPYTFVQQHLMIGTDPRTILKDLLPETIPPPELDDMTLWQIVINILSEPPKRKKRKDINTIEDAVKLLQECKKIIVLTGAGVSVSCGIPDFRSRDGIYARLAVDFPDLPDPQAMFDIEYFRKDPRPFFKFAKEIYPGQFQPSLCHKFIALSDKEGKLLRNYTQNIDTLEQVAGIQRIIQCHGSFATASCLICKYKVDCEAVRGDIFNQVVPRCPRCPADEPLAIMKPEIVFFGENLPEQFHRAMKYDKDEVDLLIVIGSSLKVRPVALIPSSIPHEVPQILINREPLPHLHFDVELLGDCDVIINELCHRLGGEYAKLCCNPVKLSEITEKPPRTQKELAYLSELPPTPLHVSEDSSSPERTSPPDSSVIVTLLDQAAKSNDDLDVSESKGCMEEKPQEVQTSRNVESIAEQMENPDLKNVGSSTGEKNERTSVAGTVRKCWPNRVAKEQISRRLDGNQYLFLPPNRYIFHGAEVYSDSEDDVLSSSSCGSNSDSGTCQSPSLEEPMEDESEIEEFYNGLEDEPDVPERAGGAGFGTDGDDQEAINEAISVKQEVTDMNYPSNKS
UniProt Q9BPX6, residues 34-476: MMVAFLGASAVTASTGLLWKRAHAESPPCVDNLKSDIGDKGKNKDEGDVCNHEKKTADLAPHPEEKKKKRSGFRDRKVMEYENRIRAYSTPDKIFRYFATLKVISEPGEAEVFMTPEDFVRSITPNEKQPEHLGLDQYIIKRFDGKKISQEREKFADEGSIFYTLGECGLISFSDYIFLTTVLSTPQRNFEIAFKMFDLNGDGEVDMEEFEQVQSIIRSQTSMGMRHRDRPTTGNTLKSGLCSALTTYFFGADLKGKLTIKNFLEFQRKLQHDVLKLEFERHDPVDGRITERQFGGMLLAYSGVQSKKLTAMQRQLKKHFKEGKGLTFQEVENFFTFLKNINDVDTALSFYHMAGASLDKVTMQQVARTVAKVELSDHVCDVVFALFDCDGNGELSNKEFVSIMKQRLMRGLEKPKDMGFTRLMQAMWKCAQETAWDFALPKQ

These results are taken from paper PMC11856031.

One assay has as its target SIRT1-flag (UniProt Q96EB6). In words: co-IP; HeLa cells transfected with SIRT1-flag plus MICU1-HA (controls: SIRT1-flag plus pCMV-HA, pCMV-tag4a plus MICU1-HA), lysed after 24 h; 2 ug Flag or SIRT1 antibody overnight at 4 C, protein A agarose; Western blot.
The next assay deals with GST-SIRT1 (UniProt Q96EB6). Nature of the assay: pull-down; GST-SIRT1 or GST on Glutathione Sepharose 4B beads mixed with ultrasonic lysate of HeLa cells transfected with MICU1-HA (24 h); bound proteins detected by immunoblot with anti-HA and anti-GST; only the target purified.
Assay [1] has as its target T1, SIRT1 (endogenous, rat cortical neurons) (rat (endogenous in primary cortical neurons)).
T1 sequence: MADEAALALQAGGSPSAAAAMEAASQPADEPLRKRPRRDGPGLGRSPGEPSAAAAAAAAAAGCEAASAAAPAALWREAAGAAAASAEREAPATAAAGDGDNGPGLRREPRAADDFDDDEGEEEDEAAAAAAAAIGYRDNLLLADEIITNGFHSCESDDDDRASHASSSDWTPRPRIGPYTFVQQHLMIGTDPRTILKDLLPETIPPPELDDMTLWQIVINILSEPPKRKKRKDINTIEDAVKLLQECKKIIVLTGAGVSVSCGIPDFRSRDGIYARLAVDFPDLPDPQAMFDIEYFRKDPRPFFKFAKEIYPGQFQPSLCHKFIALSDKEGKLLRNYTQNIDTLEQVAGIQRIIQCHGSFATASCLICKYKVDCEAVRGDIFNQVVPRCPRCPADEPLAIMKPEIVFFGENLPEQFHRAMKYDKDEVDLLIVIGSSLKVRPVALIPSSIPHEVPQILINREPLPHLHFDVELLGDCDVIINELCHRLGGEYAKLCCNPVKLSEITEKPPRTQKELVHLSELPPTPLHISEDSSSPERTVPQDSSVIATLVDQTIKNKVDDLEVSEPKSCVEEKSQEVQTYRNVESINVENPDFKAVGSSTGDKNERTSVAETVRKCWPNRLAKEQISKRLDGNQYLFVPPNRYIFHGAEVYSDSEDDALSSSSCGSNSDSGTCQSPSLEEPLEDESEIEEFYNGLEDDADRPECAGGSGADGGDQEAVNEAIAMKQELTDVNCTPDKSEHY
Nature of the assay: co-IP; endogenous proteins in lysates of rat cortical neurons cultured for 7 days; immunoprecipitation with SIRT1 antibody, Western blot with anti-SIRT1 and anti-MICU1. Background: Immunoblotting shows a protein as a band on a membrane.

With MICU1-HA (from UniProt Q9BPX6 34-476), the binding entry with SIRT1-flag and with GST-SIRT1 was “binds” throughout.

B1: MICU1 (endogenous, rat cortical neurons) (protein, UniProt Q6P6Q9 34-477)
chain: MLVAFLGASAVTASTGLLWKKAHAESPPSVNSKKTDAGDKGKSKDTREVSSHEGSAADTAAEPYPEEKKKKRSGFRDRKVMEYENRIRAYSTPDKIFRYFATLKVINEPGETEVFMTPQDFVRSITPNEKQPEHLGLDQYIIKRFDGKKIAQEREKFADEGSIFYTLGECGLISFSDYIFLTTVLSTPQRNFEIAFKMFDLNGDGEVDMEEFEQVQSIIRSQTSMGMRHRDRPTTGNTLKSGLCSALTTYFFGADLKGKLTIKNFLEFQRKLQHDVLKLEFERHDPVDGRISERQFGGMLLAYSGVQSKKLTAMQRQLKKHFKDGKGLTFQEVENFFTFLKNINDVDTALSFYHMAGASLDKVTMQQVARTVAKVELSDHVCDVVFALFDCDGNGELSNKEFVSIMKQRLMRGLEKPKDMGFTRLMQAMWKCAQETAWDFALPK
Consider B1, for which, in assay [1], the binding entry is listed as “binds”.
